This is one part of the list. Residues, ends and D or L forms follow the SMILES beside them. *: point of attachment. Cbz = O=C(OCc1ccccc1)*
Experiments:
Test in all cases: log2 fold change, soluble protein after heating vs DMSO (PISA); higher = thermal stabilisation; K562 cells, 10 uM, 30 min; active = over 0.2 and 3.5 SD of the protein, either way, in both replicates (recomputed)
[1] = compound: C1COCCN1CCN2C3=CC=CC=C3N=C2NC(=O)C4=CC(=CC=C4)[N+](=O)[O-] [IRAK-1-4 Inhibitor I]
Method in brief: (§1)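 For each measurement, 10 μM compound was applied for 30 min to K562 cells at 2×10^6 cells/mL. Aliquots were heated for 3 min across 48°C-58°C, pooled, and extracted in PBS with 0.5% NP-40 at 4°C; the supernatant after 21,000xg for 90 min was soluble protein. This was quantified by TMTpro 16plex LC-MS/MS with channel sums equalised, and thermal stability was reported relative to control samples from duplicates, on a log2 fold-change scale.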

Protein sequences, listed by entry. Tags and fused reporters are not part of them. Lines headed by an entry give the natural chain unless they say otherwise; changes in a name come on top.
UniProt Q96F63: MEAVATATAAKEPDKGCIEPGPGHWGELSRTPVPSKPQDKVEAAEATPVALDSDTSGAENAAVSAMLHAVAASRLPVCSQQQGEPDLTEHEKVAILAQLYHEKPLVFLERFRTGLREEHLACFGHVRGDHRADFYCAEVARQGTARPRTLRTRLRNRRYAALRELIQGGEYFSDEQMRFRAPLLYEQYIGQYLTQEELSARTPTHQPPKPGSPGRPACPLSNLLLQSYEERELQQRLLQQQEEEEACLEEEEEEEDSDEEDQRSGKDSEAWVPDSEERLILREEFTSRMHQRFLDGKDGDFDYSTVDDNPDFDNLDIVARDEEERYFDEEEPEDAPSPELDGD
UniProt Q08722, whole entry, looked up: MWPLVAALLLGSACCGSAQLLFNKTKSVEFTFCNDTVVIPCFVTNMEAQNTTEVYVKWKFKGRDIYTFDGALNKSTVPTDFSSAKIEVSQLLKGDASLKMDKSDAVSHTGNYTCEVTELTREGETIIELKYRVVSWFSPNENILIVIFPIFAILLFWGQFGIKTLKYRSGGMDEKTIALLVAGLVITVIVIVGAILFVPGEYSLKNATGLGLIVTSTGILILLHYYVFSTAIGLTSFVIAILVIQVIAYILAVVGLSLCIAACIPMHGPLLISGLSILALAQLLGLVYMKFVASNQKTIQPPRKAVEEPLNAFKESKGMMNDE
UniProt Q9H6F5: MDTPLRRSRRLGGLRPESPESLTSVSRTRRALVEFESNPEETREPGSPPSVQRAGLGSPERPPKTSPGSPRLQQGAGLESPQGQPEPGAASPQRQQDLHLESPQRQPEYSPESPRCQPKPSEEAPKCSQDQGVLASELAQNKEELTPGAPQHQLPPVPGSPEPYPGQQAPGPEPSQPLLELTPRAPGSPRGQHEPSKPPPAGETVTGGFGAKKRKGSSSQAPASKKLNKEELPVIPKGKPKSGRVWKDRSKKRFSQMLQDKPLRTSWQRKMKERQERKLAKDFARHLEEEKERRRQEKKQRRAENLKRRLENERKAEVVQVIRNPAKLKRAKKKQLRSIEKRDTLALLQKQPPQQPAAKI
UniProt P15529: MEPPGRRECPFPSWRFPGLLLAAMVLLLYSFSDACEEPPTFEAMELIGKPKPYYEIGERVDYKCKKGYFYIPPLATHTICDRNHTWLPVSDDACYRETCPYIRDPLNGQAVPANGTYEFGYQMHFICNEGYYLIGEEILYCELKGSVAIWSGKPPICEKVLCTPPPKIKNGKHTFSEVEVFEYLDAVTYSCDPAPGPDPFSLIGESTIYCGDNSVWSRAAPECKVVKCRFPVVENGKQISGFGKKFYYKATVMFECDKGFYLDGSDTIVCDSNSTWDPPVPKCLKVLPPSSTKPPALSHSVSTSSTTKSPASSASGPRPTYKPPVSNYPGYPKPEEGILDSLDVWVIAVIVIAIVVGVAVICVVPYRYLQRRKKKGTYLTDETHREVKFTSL
UniProt P60953, whole entry, looked up: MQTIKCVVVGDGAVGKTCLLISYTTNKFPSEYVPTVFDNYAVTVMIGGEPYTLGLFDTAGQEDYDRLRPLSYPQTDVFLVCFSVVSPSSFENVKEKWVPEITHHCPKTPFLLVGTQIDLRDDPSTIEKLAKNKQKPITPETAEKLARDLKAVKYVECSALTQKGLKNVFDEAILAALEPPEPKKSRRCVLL
UniProt Q13042, whole entry, looked up: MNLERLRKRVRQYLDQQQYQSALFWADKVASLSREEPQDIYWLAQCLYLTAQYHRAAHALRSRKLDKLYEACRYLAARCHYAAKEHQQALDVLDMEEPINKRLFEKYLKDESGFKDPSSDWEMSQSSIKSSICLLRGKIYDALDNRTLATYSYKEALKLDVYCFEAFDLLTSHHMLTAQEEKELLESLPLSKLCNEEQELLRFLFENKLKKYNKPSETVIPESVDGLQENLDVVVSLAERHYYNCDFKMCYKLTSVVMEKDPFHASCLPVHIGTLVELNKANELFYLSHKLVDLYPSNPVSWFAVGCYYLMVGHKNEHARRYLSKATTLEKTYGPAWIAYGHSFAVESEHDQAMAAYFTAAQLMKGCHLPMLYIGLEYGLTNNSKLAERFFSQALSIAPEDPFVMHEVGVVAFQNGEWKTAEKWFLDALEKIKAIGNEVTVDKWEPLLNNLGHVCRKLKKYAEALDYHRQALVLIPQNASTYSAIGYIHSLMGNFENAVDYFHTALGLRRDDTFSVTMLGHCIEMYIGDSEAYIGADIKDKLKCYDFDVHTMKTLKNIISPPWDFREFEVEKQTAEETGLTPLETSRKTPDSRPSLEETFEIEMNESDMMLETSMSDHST
UniProt Q96NT0: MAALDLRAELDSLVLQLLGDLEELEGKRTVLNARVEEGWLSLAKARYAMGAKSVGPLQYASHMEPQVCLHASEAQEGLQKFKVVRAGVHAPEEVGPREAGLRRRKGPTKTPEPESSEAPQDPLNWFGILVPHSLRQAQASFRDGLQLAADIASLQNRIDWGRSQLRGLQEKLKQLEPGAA
UniProt P30260, whole entry, looked up: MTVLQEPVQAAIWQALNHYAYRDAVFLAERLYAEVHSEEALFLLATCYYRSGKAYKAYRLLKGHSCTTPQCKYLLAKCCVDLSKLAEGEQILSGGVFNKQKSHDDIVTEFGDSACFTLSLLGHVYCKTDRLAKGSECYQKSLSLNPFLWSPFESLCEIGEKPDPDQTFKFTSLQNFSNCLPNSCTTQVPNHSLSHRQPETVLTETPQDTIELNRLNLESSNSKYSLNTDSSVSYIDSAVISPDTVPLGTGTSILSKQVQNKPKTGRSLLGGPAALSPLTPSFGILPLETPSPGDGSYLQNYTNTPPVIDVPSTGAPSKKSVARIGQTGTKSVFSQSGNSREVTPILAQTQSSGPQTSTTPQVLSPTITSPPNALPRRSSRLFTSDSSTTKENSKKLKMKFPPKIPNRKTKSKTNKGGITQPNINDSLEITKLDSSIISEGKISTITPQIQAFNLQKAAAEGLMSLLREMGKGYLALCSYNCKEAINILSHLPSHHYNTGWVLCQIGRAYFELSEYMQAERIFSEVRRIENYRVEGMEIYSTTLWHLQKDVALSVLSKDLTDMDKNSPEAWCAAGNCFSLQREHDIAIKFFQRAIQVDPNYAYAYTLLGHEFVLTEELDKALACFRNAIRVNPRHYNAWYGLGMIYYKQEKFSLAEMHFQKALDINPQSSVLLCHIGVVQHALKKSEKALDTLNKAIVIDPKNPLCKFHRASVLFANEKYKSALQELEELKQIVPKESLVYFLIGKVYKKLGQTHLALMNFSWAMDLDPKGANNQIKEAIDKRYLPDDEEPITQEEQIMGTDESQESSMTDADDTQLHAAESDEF
UniProt Q13951, whole entry, looked up: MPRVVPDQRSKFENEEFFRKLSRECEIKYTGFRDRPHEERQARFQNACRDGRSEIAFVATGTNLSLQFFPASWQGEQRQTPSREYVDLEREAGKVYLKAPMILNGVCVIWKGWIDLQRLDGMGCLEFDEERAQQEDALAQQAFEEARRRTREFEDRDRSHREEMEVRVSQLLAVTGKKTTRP
UniProt O75794: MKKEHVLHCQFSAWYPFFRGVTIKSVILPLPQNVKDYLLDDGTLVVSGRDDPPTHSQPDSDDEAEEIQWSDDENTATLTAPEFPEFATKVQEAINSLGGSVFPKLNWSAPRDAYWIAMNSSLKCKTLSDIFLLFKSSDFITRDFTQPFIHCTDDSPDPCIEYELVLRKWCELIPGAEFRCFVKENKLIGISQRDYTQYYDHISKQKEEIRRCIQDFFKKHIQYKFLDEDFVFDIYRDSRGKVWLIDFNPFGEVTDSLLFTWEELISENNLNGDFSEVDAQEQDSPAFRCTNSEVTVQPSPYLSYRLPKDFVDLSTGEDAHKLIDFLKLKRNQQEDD
UniProt O14618: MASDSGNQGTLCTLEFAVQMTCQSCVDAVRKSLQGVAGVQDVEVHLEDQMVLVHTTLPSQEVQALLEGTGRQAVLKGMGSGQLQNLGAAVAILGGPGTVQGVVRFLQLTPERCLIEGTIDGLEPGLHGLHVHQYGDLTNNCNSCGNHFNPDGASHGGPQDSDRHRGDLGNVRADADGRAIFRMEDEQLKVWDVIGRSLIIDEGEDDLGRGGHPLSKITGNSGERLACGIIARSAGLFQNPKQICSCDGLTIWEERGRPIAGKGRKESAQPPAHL
UniProt Q567U6, whole entry, looked up: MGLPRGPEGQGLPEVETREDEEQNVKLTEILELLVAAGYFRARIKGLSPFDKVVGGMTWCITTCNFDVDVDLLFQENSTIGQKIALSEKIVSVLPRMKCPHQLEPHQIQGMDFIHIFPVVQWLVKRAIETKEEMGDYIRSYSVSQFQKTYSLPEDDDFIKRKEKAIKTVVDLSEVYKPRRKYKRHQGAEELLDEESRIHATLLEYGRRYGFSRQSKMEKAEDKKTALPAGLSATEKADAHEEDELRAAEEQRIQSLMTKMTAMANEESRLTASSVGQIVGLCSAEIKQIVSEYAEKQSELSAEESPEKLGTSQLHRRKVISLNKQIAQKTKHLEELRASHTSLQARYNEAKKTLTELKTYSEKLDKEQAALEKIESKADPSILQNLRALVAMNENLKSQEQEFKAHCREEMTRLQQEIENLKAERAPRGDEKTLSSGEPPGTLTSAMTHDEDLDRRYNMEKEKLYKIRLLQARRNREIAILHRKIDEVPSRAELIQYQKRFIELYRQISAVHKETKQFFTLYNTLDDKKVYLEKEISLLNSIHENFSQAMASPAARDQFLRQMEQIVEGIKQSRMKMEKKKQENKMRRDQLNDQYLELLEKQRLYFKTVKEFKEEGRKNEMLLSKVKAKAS
UniProt P19397: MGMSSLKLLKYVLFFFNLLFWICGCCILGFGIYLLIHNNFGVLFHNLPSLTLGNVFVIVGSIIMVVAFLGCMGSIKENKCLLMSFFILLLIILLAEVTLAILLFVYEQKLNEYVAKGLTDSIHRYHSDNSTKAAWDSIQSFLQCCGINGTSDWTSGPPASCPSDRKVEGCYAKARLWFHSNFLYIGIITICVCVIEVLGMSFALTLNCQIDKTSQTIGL
UniProt P13987: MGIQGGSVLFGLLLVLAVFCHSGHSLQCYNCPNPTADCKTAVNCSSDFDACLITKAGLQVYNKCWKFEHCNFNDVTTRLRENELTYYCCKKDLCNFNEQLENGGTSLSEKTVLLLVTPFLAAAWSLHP
UniProt P20248, whole entry, looked up: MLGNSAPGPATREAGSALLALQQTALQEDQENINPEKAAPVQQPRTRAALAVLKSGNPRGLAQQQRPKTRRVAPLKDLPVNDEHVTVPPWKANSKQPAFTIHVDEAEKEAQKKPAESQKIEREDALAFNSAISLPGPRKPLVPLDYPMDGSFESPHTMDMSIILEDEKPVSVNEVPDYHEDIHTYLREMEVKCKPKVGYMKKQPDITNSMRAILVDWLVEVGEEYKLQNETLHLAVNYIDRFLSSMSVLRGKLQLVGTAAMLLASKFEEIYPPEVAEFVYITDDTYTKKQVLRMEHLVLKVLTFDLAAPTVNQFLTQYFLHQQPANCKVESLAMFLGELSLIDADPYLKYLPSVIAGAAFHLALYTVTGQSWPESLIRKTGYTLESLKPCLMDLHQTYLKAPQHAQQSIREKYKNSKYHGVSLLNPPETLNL

[2] = compound: C=CC(=O)N1CCC[C@@H](n2nc(-c3ccc(Oc4ccccc4)cc3)c3c(N)ncnc32)C1 [ibrutinib]
Method in brief: as §1

[3] = compound: CC(=O)c1cnc2ccc(-c3cc(Cl)c(O)c(Cl)c3)nc2c1N[C@H]1CC[C@H](CN(C)C)CC1
Method in brief: as §1

[4] = compound: CC(C)(C)Cn1c(N)nc2ccc(-c3[nH]c(C(C)(C)C)nc3-c3ccc(F)cc3)nc21 [ralimetinib]
Method in brief: as §1

[5] = compound: CC(C)(O)CC(=O)NCCn1ccc2ncnc(Nc3ccc(Oc4cccc(C(F)(F)F)c4)c(Cl)c3)c21
Method in brief: as §1

[6] = compound: CC(C)C1=C2N=C(C=C(N2N=C1)NCC3=CC=CC=C3)NCCCCCCN
Method in brief: as §1

[7] = compound: CC(C)C[C@@H](C=O)NC(=O)[C@H](CC(C)C)NC(=O)[C@H](CC(C)C)NC(=O)OCc1ccccc1
Method in brief: as §1

[8] = compound: CC(C)N(C[C@H]1O[C@@H](n2cnc3c(N)ncnc32)[C@H](O)[C@@H]1O)[C@H]1C[C@@H](CCc2nc3cc(C(C)(C)C)ccc3[nH]2)C1 [pinometostat]
Method in brief: as §1

[9] = compound: CC1=C(C(CC(=O)N1)C2=CC=C(C=C2)C(F)(F)F)C(=O)NC3=C(C=C4C(=C3)C=NN4)F
Method in brief: as §1

[10] = compound: CC1=C(C2=C(C=C1)C(=O)C3=CC=CC=C3N2CCCN)C
Method in brief: as §1

[11] = compound: CC1=C(C=C(C=C1)NC(=O)C2=CC(=CC=C2)C(C)(C)C#N)NC3=CC4=C(C=C3)N=CN(C4=O)C
Method in brief: as §1

[12] = compound: CC1=C(C=C(C=C1)NC(=O)C2=CC(=CC=C2)N(C)C)NC(=O)C3=CC=C(C=C3)O
Method in brief: as §1

[13] = compound: CC1=CC=C(C=C1)SC2=C3C=C(SC3=CN=C2)C(=O)N
Method in brief: as §1

[14] = compound: CC1=NC(=CC=C1)C2=C(N=C(N2)C(C)(C)C)C3=CC4=NC=CN=C4C=C3
Method in brief: as §1

[15] = compound: CCCCN(Cc1ccc(C(=O)NO)cc1)C(=O)Nc1ccccc1 [Nexturastat A]
Method in brief: as §1

[16] = compound: CCCS(=O)(=O)Nc1ccc(F)c(C(=O)c2c[nH]c3ncc(-c4ccc(Cl)cc4)cc23)c1F [vemurafenib]
Method in brief: as §1

[17] = compound: CCCS(=O)(=O)Nc1ccc(F)c(C(=O)c2c[nH]c3ncc(Cl)cc23)c1F
Method in brief: as §1

[18] = compound: CCCc1cc(C)[nH]c(=O)c1CNC(=O)c1cc(-c2ccnc(N3CCN(C)CC3)c2)cc2c1cnn2C(C)C
Method in brief: as §1

[19] = compound: CCN(CC)Cc1ccc2cc(COC(=O)Nc3ccc(C(=O)NO)cc3)ccc2c1 [givinostat]
Method in brief: as §1

[20] = compound: CCN(CCCOc1ccc2c(Nc3cc(CC(=O)Nc4cccc(F)c4)[nH]n3)ncnc2c1)CCOP(=O)(O)O [barasertib]
Method in brief: as §1

Measured: log2 fold change

CCDC97 (UniProt Q96F63)
inactive: [1] -0.141 | [2] 0.106 | [3] -0.085 | [4] 0.172 | [5] 0.018 | [6] 0.094 | [7] 0.058 | [8] 0.082 | [9] -0.008 | [10] -0.09 | [11] -0.242 | [12] 0.114 | [13] 0.02 | [14] -0.056 | [15] 0.123 | [16] 0.087 | [17] 0.149 | [18] -0.033 | [19] -0.006 | [20] -0.061

CD47 (UniProt Q08722)
inactive: [1] -0.006 | [2] 0.006 | [3] 0.003 | [4] 0.017 | [5] 0.005 | [6] 0.113 | [7] -0.006 | [8] -0.044 | [9] 0.006 | [10] 0.004 | [11] -0.011 | [12] 0.016 | [13] -0.016 | [14] -0.086 | [15] -0.015 | [16] 0.003 | [17] -0.024 | [18] -0.004 | [19] 0.04 | [20] -0.006

CCDC86 (UniProt Q9H6F5)
inactive: [1] -0.224 | [2] 0.004 | [3] 0.28 | [4] 0.099 | [5] 0.009 | [6] -0.01 | [7] 0.166 | [8] 0.191 | [9] -0.028 | [10] -0.547 | [11] 0.021 | [12] 0.005 | [13] -0.079 | [14] -0.205 | [15] 0.078 | [16] -0.118 | [17] -0.082 | [18] 0.126 | [19] -0.024 | [20] -0.16

CD46 isoform 2 (UniProt P15529)
inactive: [1] 0.023 | [2] 0.096 | [3] 0.015 | [4] -0.064 | [5] 0 | [6] 0.13 | [7] 0.025 | [8] -0.004 | [9] 0.015 | [10] 0.001 | [11] 0 | [12] -0.035 | [13] 0.048 | [14] -0.023 | [15] 0.021 | [16] 0.007 | [17] -0.036 | [18] 0.013 | [19] -0.001 | [20] -0.018

CDC42 isoform 1 (UniProt P60953)
inactive: [1] 0.029 | [2] -0.014 | [3] 0.007 | [4] -0.053 | [5] 0.042 | [6] 0.081 | [7] -0.046 | [8] -0.026 | [9] 0.02 | [10] -0.044 | [11] 0.042 | [12] 0.008 | [13] 0.019 | [14] -0.03 | [15] -0.05 | [16] -0.041 | [17] -0.017 | [18] -0.05 | [19] -0.02 | [20] -0.005

CDC16 (UniProt Q13042)
inactive: [1] -0.061 | [2] -0.032 | [3] -0.001 | [4] 0.008 | [5] -0.011 | [6] -0.049 | [7] 0.039 | [8] 0.09 | [9] 0.007 | [10] -0.042 | [11] 0.026 | [12] 0.003 | [13] -0.015 | [14] -0.007 | [15] -0.086 | [16] 0.023 | [17] 0.043 | [18] 0.022 | [19] -0.049 | [20] -0.004

CCDC115 (UniProt Q96NT0)
inactive: [1] 0.024 | [2] 0.011 | [3] 0.036 | [4] -0.065 | [5] -0.002 | [6] 0.083 | [7] -0.012 | [8] -0.043 | [9] -0.008 | [10] -0.041 | [11] -0.044 | [12] -0.041 | [13] -0.067 | [14] 0.055 | [15] -0.014 | [16] 0.069 | [17] 0.008 | [18] 0.009 | [19] 0.057 | [20] 0.026

CDC27 isoform 2 (UniProt P30260)
inactive: [1] -0.017 | [2] -0.008 | [3] 0 | [4] 0.04 | [5] 0.001 | [6] -0.026 | [7] 0.012 | [8] 0.075 | [9] -0.027 | [10] -0.073 | [11] -0.006 | [12] -0.008 | [13] -0.013 | [14] -0.018 | [15] 0.009 | [16] -0.008 | [17] 0.042 | [18] 0.019 | [19] 0.029 | [20] -0.014

CBL (UniProt P22681)
inactive: [1] -0.009 | [2] 0.027 | [3] -0.067 | [4] 0.021 | [5] 0.006 | [6] 0.035 | [7] -0.002 | [8] -0.07 | [9] -0.041 | [10] 0.006 | [11] 0.038 | [12] 0.015 | [13] 0.005 | [14] 0.019 | [15] -0.038 | [16] 0.002 | [17] 0.018 | [18] 0.021 | [19] -0.015 | [20] 0.018

CBFB isoform 2 (UniProt Q13951)
inactive: [1] -0.018 | [2] -0.043 | [3] 0.058 | [4] -0.081 | [5] 0 | [6] -0.014 | [7] -0.039 | [8] 0.037 | [9] 0.023 | [10] -0.028 | [11] 0.017 | [12] -0.044 | [13] -0.028 | [14] 0.005 | [15] 0.095 | [16] 0.077 | [17] 0.013 | [18] 0.186 | [19] 0.058 | [20] 0.084

CDC123 (UniProt O75794)
inactive: [1] -0.023 | [2] -0.009 | [3] -0.026 | [4] -0.015 | [5] -0.088 | [6] -0.05 | [7] 0.037 | [8] -0.009 | [10] 0.001 | [11] -0.033 | [12] 0.006 | [13] 0.043 | [14] 0.048 | [15] 0.013 | [16] 0.011 | [17] 0.02 | [18] 0.038 | [19] -0.01 | [20] 0.028

CCS (UniProt O14618)
inactive: [1] 0.036 | [2] -0.022 | [3] -0.07 | [4] 0.01 | [5] -0.051 | [6] -0.013 | [7] 0.012 | [8] -0.041 | [9] -0.009 | [10] 0.064 | [11] -0.063 | [12] -0.017 | [13] 0.025 | [14] 0.012 | [15] -0.055 | [16] -0.036 | [17] 0 | [18] -0.033 | [19] -0.083 | [20] 0.034

CCDC93 (UniProt Q567U6)
inactive: [1] 0.016 | [2] -0.036 | [3] -0.01 | [4] 0.065 | [5] -0.032 | [6] -0.105 | [7] 0.014 | [8] 0.01 | [9] 0.009 | [10] 0.087 | [11] -0.024 | [12] -0.01 | [13] -0.015 | [14] 0.002 | [15] 0.151 | [16] 0.026 | [17] -0.047 | [18] -0.018 | [19] 0.042 | [20] 0.107

CD53 (UniProt P19397)
inactive: [1] 0.097 | [2] 0.033 | [3] -0.026 | [4] -0.24 | [5] -0.021 | [6] 0.229 | [7] 0.051 | [8] -0.014 | [10] 0.105 | [11] -0.062 | [12] -0.099 | [13] -0.13 | [14] -0.095 | [15] -0.006 | [16] -0.035 | [17] -0.182 | [18] -0.092 | [19] -0.006 | [20] -0.102

CD59 isoform 2 (UniProt P13987)
inactive: [1] -0.018 | [2] 0.06 | [3] 0.015 | [4] 0.112 | [5] 0.208 | [6] 0.07 | [7] -0.001 | [8] 0.021 | [9] 0.008 | [10] 0.065 | [11] 0.054 | [12] -0.103 | [13] -0.097 | [14] -0.057 | [15] 0.146 | [16] -0.038 | [17] -0.155 | [18] 0.009 | [19] -0.017 | [20] -0.07

Quoted from the listing (2 entries):
CDC42 isoform 1 (UniProt P60953)
inactive: [1] 0.029 | [2] -0.014 | [3] 0.007 | [4] -0.053 | [5] 0.042 | [6] 0.081 | [7] -0.046 | [8] -0.026 | [9] 0.02 | [10] -0.044 | [11] 0.042 | [12] 0.008 | [13] 0.019 | [14] -0.03 | [15] -0.05 | [16] -0.041 | [17] -0.017 | [18] -0.05 | [19] -0.02 | [20] -0.005

CDC16 (UniProt Q13042)
inactive: [1] -0.061 | [2] -0.032 | [3] -0.001 | [4] 0.008 | [5] -0.011 | [6] -0.049 | [7] 0.039 | [8] 0.09 | [9] 0.007 | [10] -0.042 | [11] 0.026 | [12] 0.003 | [13] -0.015 | [14] -0.007 | [15] -0.086 | [16] 0.023 | [17] 0.043 | [18] 0.022 | [19] -0.049 | [20] -0.004

Continued:

CCNA2 (UniProt P20248)
inactive: [1] 0.031 | [2] 0 | [3] -0.08 | [4] 0.001 | [5] -0.004 | [6] -0.008 | [7] -0.013 | [8] -0.017 | [9] 0.011 | [10] 0.012 | [11] 0.027 | [12] -0.003 | [13] 0.014 | [14] -0.005 | [15] 0.002 | [16] 0.036 | [17] 0.052 | [18] -0.01 | [19] 0.011 | [20] 0.012

Source: the supplement of paper PMC10849652
